Experimental data reported in the supplement of paper PMC12067093, “Discovery and optimisation of a covalent ligand for TRIM25 and its application to targeted protein ubiquitination” (Chemical Science, 2025).
The other results are listed elsewhere or left out.

Protein sequences, listed by entry. Tags and fused reporters are not part of them. Lines headed by an entry give the natural chain unless they say otherwise; changes in a name come on top.
UniProt Q15942: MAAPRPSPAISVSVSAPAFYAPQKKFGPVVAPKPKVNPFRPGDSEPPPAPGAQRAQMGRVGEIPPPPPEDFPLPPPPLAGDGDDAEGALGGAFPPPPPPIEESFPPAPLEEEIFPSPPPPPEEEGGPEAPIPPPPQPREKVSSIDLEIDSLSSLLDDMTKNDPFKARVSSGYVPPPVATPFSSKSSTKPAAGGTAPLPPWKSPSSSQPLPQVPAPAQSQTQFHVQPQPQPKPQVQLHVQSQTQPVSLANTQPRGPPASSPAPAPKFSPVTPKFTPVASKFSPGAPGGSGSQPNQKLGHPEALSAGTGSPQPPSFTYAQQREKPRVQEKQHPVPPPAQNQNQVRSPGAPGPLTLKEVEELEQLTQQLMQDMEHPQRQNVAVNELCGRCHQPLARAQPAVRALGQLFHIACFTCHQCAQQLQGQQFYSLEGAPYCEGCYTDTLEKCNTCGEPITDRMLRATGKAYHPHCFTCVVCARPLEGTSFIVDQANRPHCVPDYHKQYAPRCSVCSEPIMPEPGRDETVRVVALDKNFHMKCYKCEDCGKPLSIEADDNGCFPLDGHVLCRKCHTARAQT
UniProt A7E2V4, whole entry, looked up: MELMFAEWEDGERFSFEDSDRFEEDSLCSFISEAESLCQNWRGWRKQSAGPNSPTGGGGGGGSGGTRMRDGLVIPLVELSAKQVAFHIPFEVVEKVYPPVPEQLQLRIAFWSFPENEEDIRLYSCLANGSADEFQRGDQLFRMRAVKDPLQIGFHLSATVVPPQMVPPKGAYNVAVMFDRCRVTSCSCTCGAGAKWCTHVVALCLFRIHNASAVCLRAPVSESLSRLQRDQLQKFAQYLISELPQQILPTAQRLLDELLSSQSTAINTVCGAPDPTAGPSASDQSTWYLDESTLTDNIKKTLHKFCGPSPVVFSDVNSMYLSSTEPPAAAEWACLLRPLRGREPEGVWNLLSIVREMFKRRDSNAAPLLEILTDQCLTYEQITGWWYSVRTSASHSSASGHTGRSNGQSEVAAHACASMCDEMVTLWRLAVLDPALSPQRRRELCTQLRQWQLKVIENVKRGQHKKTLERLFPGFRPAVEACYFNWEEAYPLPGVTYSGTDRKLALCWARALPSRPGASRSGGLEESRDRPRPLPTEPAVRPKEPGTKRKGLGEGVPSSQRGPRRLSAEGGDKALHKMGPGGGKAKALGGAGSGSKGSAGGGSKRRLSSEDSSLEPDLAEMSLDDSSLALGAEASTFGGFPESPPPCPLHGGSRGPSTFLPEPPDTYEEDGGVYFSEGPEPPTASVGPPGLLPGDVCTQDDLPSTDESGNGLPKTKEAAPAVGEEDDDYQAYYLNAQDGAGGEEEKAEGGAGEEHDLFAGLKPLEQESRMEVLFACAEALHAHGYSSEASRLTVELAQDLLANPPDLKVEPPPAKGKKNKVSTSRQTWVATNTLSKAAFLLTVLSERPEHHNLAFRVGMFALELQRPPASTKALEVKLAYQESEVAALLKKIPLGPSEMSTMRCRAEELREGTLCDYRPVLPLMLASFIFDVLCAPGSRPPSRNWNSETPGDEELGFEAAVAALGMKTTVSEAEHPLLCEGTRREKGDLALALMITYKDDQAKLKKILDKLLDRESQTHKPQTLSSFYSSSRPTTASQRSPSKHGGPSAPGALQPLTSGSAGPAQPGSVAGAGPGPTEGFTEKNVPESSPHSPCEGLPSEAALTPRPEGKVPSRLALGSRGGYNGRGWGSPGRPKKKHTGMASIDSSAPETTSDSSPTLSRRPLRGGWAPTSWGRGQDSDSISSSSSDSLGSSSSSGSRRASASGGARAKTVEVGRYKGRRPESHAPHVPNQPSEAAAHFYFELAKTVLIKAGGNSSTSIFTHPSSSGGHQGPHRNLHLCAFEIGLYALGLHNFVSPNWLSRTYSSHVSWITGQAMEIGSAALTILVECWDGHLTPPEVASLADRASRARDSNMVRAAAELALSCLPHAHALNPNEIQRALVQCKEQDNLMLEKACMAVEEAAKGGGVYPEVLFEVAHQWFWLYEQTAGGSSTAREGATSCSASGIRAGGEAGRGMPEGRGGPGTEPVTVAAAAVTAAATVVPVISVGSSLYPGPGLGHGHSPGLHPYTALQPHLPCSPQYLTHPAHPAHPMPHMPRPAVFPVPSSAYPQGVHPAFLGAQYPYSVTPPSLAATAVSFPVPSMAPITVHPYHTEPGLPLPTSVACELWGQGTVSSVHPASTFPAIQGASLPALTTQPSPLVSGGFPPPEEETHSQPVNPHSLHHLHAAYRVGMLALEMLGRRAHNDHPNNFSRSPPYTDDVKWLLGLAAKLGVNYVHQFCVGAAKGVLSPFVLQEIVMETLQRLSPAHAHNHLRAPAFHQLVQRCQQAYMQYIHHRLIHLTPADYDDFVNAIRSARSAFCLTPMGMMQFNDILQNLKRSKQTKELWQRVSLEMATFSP
UniProt O43264: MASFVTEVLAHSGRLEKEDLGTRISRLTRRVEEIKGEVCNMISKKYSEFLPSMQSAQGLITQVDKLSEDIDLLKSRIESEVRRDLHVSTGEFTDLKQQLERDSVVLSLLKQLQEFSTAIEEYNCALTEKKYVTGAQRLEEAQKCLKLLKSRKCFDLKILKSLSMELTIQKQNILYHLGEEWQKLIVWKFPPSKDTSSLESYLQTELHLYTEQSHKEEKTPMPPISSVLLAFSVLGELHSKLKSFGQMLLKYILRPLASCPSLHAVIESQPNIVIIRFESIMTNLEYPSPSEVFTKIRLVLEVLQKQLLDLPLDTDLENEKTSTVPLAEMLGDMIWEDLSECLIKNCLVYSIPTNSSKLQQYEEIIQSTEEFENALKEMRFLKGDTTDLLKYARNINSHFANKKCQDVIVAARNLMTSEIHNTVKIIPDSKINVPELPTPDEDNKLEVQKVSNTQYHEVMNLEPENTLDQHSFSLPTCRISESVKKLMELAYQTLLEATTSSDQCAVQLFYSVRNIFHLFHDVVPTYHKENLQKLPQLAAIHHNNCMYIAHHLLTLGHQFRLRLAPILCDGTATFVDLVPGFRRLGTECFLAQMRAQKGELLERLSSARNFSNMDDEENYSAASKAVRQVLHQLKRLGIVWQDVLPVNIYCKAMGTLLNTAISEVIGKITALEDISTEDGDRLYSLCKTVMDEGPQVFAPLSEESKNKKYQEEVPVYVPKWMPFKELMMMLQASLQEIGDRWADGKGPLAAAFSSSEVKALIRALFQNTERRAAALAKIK
UniProt O95218: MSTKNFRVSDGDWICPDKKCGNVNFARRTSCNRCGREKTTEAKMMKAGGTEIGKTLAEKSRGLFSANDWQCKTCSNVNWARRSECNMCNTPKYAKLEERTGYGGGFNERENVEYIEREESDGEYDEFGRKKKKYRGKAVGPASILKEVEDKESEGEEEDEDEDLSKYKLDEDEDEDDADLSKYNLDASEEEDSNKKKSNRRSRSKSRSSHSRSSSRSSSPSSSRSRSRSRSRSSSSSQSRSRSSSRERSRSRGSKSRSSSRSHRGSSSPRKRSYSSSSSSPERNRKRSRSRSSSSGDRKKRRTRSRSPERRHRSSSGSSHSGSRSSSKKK
UniProt Q9C0D3: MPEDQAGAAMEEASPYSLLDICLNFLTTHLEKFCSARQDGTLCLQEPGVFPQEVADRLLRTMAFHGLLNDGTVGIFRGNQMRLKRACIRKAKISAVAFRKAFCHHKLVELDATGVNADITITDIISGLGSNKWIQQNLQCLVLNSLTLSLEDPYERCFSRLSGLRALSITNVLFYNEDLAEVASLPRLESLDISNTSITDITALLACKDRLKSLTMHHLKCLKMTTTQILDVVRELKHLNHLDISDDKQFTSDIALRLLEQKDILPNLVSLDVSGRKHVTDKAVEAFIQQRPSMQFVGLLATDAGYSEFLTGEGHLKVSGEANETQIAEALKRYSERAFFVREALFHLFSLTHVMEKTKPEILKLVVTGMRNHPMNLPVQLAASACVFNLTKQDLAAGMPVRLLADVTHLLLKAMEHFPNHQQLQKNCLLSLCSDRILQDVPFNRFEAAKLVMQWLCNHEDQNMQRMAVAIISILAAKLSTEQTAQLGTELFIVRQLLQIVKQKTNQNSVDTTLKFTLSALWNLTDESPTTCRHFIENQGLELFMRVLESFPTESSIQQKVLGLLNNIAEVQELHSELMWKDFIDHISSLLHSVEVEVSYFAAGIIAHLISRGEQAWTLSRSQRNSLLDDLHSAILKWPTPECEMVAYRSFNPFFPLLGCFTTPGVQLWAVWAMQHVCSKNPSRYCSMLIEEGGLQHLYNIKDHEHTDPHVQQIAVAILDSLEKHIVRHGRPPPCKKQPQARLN
UniProt Q9UHR6: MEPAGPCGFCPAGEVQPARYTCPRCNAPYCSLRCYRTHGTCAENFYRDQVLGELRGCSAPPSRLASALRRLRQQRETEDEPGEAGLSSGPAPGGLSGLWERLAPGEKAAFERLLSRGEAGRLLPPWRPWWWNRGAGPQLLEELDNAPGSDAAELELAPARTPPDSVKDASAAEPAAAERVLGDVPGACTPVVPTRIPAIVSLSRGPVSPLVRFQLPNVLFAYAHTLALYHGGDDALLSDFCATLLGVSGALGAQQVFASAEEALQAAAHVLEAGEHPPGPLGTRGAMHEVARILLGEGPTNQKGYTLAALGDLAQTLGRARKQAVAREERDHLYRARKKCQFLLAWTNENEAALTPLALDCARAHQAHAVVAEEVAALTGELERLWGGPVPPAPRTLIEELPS
UniProt Q9NWK9: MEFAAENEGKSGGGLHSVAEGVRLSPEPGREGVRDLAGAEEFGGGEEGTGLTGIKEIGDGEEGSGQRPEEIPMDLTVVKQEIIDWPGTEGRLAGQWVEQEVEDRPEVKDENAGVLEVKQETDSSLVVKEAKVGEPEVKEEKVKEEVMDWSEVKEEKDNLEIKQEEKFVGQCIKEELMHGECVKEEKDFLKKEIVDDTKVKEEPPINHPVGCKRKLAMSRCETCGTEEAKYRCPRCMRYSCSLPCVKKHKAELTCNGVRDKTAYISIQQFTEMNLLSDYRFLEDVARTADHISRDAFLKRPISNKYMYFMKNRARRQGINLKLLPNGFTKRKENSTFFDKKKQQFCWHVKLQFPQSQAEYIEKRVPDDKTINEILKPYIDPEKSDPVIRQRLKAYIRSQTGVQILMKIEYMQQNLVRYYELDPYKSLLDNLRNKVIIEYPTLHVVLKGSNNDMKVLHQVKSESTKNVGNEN
UniProt O75312: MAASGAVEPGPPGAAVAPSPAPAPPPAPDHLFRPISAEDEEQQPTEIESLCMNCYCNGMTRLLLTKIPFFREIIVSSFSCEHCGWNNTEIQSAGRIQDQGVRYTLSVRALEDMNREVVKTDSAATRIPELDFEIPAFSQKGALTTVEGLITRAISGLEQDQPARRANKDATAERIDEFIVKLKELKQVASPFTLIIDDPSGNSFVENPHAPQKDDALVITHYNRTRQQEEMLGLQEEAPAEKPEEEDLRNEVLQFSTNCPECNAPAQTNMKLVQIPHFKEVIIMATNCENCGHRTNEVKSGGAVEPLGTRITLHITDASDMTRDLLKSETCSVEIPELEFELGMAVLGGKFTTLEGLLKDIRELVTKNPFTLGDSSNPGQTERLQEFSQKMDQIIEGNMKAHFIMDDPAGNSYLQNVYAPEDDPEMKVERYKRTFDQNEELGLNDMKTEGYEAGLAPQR
UniProt Q6DD87: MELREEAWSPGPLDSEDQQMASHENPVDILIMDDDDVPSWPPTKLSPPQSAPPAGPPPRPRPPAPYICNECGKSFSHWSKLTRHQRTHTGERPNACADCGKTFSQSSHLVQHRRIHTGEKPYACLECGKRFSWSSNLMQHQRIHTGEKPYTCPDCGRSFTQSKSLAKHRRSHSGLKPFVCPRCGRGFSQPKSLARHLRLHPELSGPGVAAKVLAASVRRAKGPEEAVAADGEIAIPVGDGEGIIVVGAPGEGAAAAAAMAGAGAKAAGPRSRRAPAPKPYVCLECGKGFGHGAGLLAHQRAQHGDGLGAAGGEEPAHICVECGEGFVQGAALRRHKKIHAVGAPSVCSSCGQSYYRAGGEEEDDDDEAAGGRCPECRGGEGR
UniProt P24752: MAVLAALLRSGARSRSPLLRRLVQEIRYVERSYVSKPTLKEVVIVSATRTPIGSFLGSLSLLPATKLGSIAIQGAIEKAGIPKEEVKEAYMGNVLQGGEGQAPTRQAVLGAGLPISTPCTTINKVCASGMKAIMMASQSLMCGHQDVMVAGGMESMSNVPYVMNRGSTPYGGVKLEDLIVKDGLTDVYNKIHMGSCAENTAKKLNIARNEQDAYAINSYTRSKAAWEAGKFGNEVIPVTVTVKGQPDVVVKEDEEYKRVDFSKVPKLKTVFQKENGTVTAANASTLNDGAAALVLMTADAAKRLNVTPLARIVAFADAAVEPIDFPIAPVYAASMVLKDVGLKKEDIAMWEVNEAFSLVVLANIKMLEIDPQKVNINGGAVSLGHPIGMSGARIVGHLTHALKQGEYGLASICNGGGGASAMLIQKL
UniProt Q15649: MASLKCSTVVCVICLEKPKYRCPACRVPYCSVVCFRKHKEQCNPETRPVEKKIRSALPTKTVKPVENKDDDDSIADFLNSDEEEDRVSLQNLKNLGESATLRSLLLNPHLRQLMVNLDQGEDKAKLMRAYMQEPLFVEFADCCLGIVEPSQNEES

How the values were obtained:
compound 10 = compound: Cc1cc(ccc1-c1ccccc1)C(=O)N1CCCN(CC1)C(=O)CCl [compound 10]; assay: probe-labelled cysteine peptide fold change vs DMSO (competition) (log2 fold change); higher = less target engagement (more negative = stronger competition); settings: THP-1, incubation time: 4 h
[1] = compound: CC1Cc2ccccc2N1C(=O)C1CCCN(C1)C(=O)CCl (mixture of isomers) [TRIM25 ligand 11 (diastereomer mixture)]; assay: as above; settings: THP-1, incubation time: 4 h

Target	probe-labelled cysteine peptide fold change (compound 10; 10 µM)	probe-labelled cysteine peptide fold change (compound 10; 50 µM)	probe-labelled cysteine peptide fold change ([1]; 10 µM)	probe-labelled cysteine peptide fold change ([1]; 50 µM)
ZYX_Q15942_553_PLSIEADDNGCFPLDGHVLCR (UniProt Q15942)	0.0817	0.0809	–	–
ZNF830_Q96NB3_314_QIGEIDEQIECYR (UniProt Q96NB3)	-0.0668	-0.0552	–	–
ZYX_Q15942_492_PLEGTSFIVDQANRPHCVPDYHK (UniProt Q15942)	-0.105	-0.253	–	–
ZUP1_Q96AP4_478_VVCTSKPPIYLQHQGHSR (UniProt Q96AP4)	0.0441	-0.0216	–	–
ZSWIM8_A7E2V4_1094_NVPESSPHSPCEGLPSEAALTPRPEGK (UniProt A7E2V4)	-0.465	-0.583	–	–
ZW10_O43264_346_NCLVYSIPTNSSK (UniProt O43264)	0.235	0.0445	–	–
ZYX_Q15942_537+540+553_CEDCGKPLSIEADDNGCFPLDGHVLCR (UniProt Q15942)	-0.154	-0.821	–	–
ZW10_O43264_588_LGTECFLAQMR (UniProt O43264)	0.071	0.103	–	–
ZSWIM8_A7E2V4_1365_AAAELALSCLPHAHALNPNEIQR (UniProt A7E2V4)	0.147	-0.0262	–	–
ZYX_Q15942_504+507_CSVCSEPIMPEPGRDETVR (UniProt Q15942)	0.0548	-0.176	–	–
ZYX_Q15942_553+562_PLSIEADDNGCFPLDGHVLCR (UniProt Q15942)	0.00642	-0.255	–	–
ZYX_Q15942_384_QNVAVNELCGR (UniProt Q15942)	-0.0364	-0.279	–	–
ZYX_Q15942_507_CSVCSEPIMPEPGRDETVR (UniProt Q15942)	0.027	-0.205	–	–
ZW10_O43264_588_RLGTECFLAQMR (UniProt O43264)	0.00573	-0.0952	–	–
ZYX_Q15942_540+562_CEDCGKPLSIEADDNGCFPLDGHVLCR (UniProt Q15942)	0.0401	-0.199	–	–
ZRANB2_O95218_85_RSECNMCNTPK (UniProt O95218)	0.0474	-0.361	–	–
ZYX_Q15942_537+540+553+562_CEDCGKPLSIEADDNGCFPLDGHVLCR (UniProt Q15942)	-0.214	-0.795	–	–
ZZEF1_O43149_1832+1835_TCFLGGVKPEGHGDDHEMVNMEFTCDHCQGLIIGR (UniProt O43149)	-0.0669	-0.343	–	–
ZNF800_Q2TB10_49_SGIQQIIECFR (UniProt Q2TB10)	-0.0885	0.0381	–	–
ZYX_Q15942_467+470_AYHPHCFTCVVCAR (UniProt Q15942)	-0.0656	0.22	–	–
ZNF865_P0CJ78_383_PFSCSVCSK (UniProt P0CJ78)	-0.0919	-0.259	–	–

Target	probe-labelled cysteine peptide fold change (compound 10; 10 µM)	probe-labelled cysteine peptide fold change (compound 10; 50 µM)	probe-labelled cysteine peptide fold change ([1]; 10 µM)	probe-labelled cysteine peptide fold change ([1]; 50 µM)
ZYX_Q15942_540+553+562_CEDCGKPLSIEADDNGCFPLDGHVLCR (UniProt Q15942)	-0.0975	-0.457	–	–
ZYX_Q15942_387_CHQPLAR (UniProt Q15942)	-0.0859	-0.479	–	–
ZNFX1_Q9P2E3_1302_LGCGHVCTR (UniProt Q9P2E3)	-0.0419	-0.239	–	–
ZZEF1_O43149_728_DTEESVCGATLLLR (UniProt O43149)	-0.0306	-0.17	–	–
ZNFX1_Q9P2E3_1288_VPEGGCSLPCEFR (UniProt Q9P2E3)	0.108	-0.242	–	–
ZYX_Q15942_553+562_CEDCGKPLSIEADDNGCFPLDGHVLCR (UniProt Q15942)	-0.0534	-0.641	–	–
ZNFX1_Q9P2E3_1416_CGHVEGLLYGGLLVK (UniProt Q9P2E3)	-0.13	-0.405	–	–
ZYX_Q15942_467_AYHPHCFTCVVCAR (UniProt Q15942)	0.229	0.194	–	–
ZYG11B_Q9C0D3_207_LESLDISNTSITDITALLACK (UniProt Q9C0D3)	0.312	-0.272	–	–
ZNFX1_Q9P2E3_1558_LLVCGHPCIGLCGEPCPK (UniProt Q9P2E3)	-0.0234	-0.124	–	–
ZNRF1_Q8ND25_202_LPCLCIYHK (UniProt Q8ND25)	-0.0357	-0.0614	–	–
ZNFX1_Q9P2E3_539_NIVECNSHVK (UniProt Q9P2E3)	-0.309	-0.157	–	–
ZNHIT2_Q9UHR6_41_THGTCAENFYR (UniProt Q9UHR6)	-0.0377	-0.271	–	–
ZNFX1_Q9P2E3_1292_VPEGGCSLPCEFR (UniProt Q9P2E3)	-0.288	-0.526	–	–
ZNHIT1_O43257_140_CLGTHQETR (UniProt O43257)	-0.0501	-0.199	–	–
ZNHIT6_Q9NWK9_244_YSCSLPCVK (UniProt Q9NWK9)	-0.179	-0.392	–	–
ZSWIM8_A7E2V4_979_TTVSEAEHPLLCEGTR (UniProt A7E2V4)	-0.0121	-0.0128	–	–
ZYX_Q15942_470+473_AYHPHCFTCVVCAR (UniProt Q15942)	0.0309	-0.247	–	–
ZNFX1_Q9P2E3_1860_NGHIYVIGDCGGAMER (UniProt Q9P2E3)	0.0615	0.0398	–	–
ZNFX1_Q9P2E3_1591_FVQLEDCSHIFEVQALDR (UniProt Q9P2E3)	0.0478	0.0689	–	–
ZYX_Q15942_467+470+473_AYHPHCFTCVVCAR (UniProt Q15942)	-0.111	-0.34	–	–

Target	probe-labelled cysteine peptide fold change (compound 10; 10 µM)	probe-labelled cysteine peptide fold change (compound 10; 50 µM)	probe-labelled cysteine peptide fold change ([1]; 10 µM)	probe-labelled cysteine peptide fold change ([1]; 50 µM)
ZZZ3_Q8IYH5_104_QAIENCER (UniProt Q8IYH5)	-0.328	-0.158	–	–
ZZEF1_O43149_1287_NIPDDPCR (UniProt O43149)	-0.0608	-0.0718	–	–
ZW10_O43264_650_LGIVWQDVLPVNIYCK (UniProt O43264)	0.139	0.206	–	–
ZNHIT2_Q9UHR6_361_CQFLLAWTNENEAALTPLALDCAR (UniProt Q9UHR6)	-0.0201	-0.271	–	–
ZYX_Q15942_470_AYHPHCFTCVVCAR (UniProt Q15942)	0.0156	0.121	–	–
ZPR1_O75312_288+291_EVIIMATNCENCGHR (UniProt O75312)	-0.03	-0.565	–	–
ZYX_Q15942_562_PLSIEADDNGCFPLDGHVLCR (UniProt Q15942)	0.0232	0.0852	–	–
ZZEF1_O43149_719_AEAEQSVTCAHCR (UniProt O43149)	0.0218	-0.134	–	–
ZW10_O43264_477_VSNTQYHEVMNLEPENTLDQHSFSLPTCR (UniProt O43264)	0.072	-0.05	–	–
ZNHIT6_Q9NWK9_171_FVGQCIK (UniProt Q9NWK9)	-0.528	-0.0997	–	–
ZWILCH_Q9H900_354_SDLDFAEQLWCK (UniProt Q9H900)	0.0331	0.201	–	–
ZYX_Q15942_447_CNTCGEPITDR (UniProt Q15942)	-0.171	0.173	–	–
ZRANB2_O95218_20_KCGNVNFAR (UniProt O95218)	-0.121	-0.457	–	–
ZRANB2_O95218_15_VSDGDWICPDK (UniProt O95218)	-0.064	-0.131	–	–
ZNF8_P17098_450_HEWTEALGCDPPLSQDER (UniProt P17098)	0.0836	0.0462	–	–
ZZEF1_O43149_2553_CDQATAESNPVTQK (UniProt O43149)	-0.226	0.0833	–	–
ZNF784_Q8NCA9_301_THFHGPGPGLGDSGGQLGSSAAEGSGSGCGVGDPAEEGRGETAK (UniProt Q8NCA9)	-0.246	-0.494	–	–
ZNF787_Q6DD87_350_IHAVGAPSVCSSCGQSYYR (UniProt Q6DD87)	-0.238	-0.311	–	–
ZYX_Q15942_540+553_CEDCGKPLSIEADDNGCFPLDGHVLCR (UniProt Q15942)	0.0325	-0.585	–	–
ZNRD1_Q9P1U0_78_TSVVFHQLGTAMPMSVEEGPECQGPVVDRR (UniProt Q9P1U0)	-0.0277	-0.554	–	–
ZNF787_Q6DD87_180_SHSGLKPFVCPR (UniProt Q6DD87)	-0.0348	0.176	–	–

Target	probe-labelled cysteine peptide fold change (compound 10; 10 µM)	probe-labelled cysteine peptide fold change (compound 10; 50 µM)	probe-labelled cysteine peptide fold change ([1]; 10 µM)	probe-labelled cysteine peptide fold change ([1]; 50 µM)
ZRANB2_O95218_71_GLFSANDWQCK (UniProt O95218)	-0.0624	-0.328	–	–
ACAT1_P24752_413_QGEYGLASICNGGGGASAMLIQK (UniProt P24752)	–	–	-0.0547	-0.278
ZNHIT3_Q15649_30_VPYCSVVCFR (UniProt Q15649)	-0.0726	-1.11	–	–
ZNHIT6_Q9NWK9_181_EELMHGECVK (UniProt Q9NWK9)	-0.57	0.129	–	–
ACAD9_Q9H845_613_RAYICAHPLDR (UniProt Q9H845)	–	–	-0.0302	-0.303
AACS_Q86V21_15_EERPGREEILECQVMWEPDSKK (UniProt Q86V21)	–	–	-0.073	-0.165
ABCC1_P33527_1479_TQFEDCTVLTIAHR (UniProt P33527)	–	–	0.0212	-0.0597
ZNFX1_Q9P2E3_1554_LLVCGHPCIGLCGEPCPK (UniProt Q9P2E3)	0.059	-0.149	–	–
ABR_Q12979_330_HVFLFTDVLLCAK (UniProt Q12979)	–	–	-0.0466	-0.00591
ZYX_Q15942_444+447_CNTCGEPITDR (UniProt Q15942)	0.0967	-0.162	–	–
ACLY_P53396_519_AVQGMLDFDYVCSR (UniProt P53396)	–	–	0.063	0.0843
ACBD6_Q9BR61_166_NIFDYCR (UniProt Q9BR61)	–	–	-0.116	0.0214
ABHD17B_Q5VST6_250_CQRPVEPLWVEGAGHNDVELYGQYLER (UniProt Q5VST6)	–	–	0.129	0.259
ACAP2_Q15057_10_MTVDFEECLK (UniProt Q15057)	–	–	-0.016	-0.000717
ACACA_Q13085_1009_CVFALR (UniProt Q13085)	–	–	0.11	0.278
ZYG11B_Q9C0D3_386_NHPMNLPVQLAASACVFNLTK (UniProt Q9C0D3)	-0.0351	-0.172	–	–
ACAT1_P24752_196_IHMGSCAENTAK (UniProt P24752)	–	–	-0.0775	-0.28
ZSCAN20_P17040_399_SSHPPGTCPFYEELEALVR (UniProt P17040)	-0.0355	-0.403	–	–
ZW10_O43264_124_QLQEFSTAIEEYNCALTEK (UniProt O43264)	-0.263	0.0036	–	–
ZNHIT3_Q15649_42_EQCNPETRPVEK (UniProt Q15649)	-0.0866	-0.343	–	–
